PubChem BioAssay AID1671195, Yale University, 2021
Purpose: 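Regulators of LDL receptor activity judged by labelled LDL uptake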 (primary screen). Cells: human Huh7 hepatoma cells. Reagent: siRNA pool against human genes, 18 nM. Duration: about 2 to 2.5 days of knockdown, then 8 h LDL uptake. Treatment: DiI-labelled LDL at 30 µg/ml for 8 h, in lipoprotein-deficient serum medium. Measurement: 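Fluorescent LDL signal imaged in cells, scaled to the plate median, robust z-score for each replicate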. Reading the numbers: robust z-score: higher = more LDL uptake after knockdown. Hit rule: 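a gene counts as active if at least two replicate z-scores exceed ±2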.
In all, the deposit lists about 22,000 reagents; shown is a random part of them. About 1,510 of them (6.9%) count as active. 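Active includes knockdowns raising or lowering LDL uptake; positive z-scores mean more uptake, negative mean less.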 Reagent sequences are not shown.

robust z-score, replicate 1	robust z-score, replicate 2	robust z-score, replicate 3	Outcome	gene
0.212	1.06	0.573	inactive	DEFB118 (GeneID 117285)
-2.02	-1.16	-1.9	inactive	APCDD1 (GeneID 147495)
-1.24	-1.19	-1.32	inactive	TOMM40L (GeneID 84134)
0.756	0.196	0.211	inactive	FLJ10088 (retired record) (GeneID 389419)
-0.782	-0.636	-0.706	inactive	PVT1 (GeneID 5820)
0.905	0.655	1.32	inactive	CEPT1 (GeneID 10390)
-0.636	-0.852	-0.467	inactive	GPR78 (GeneID 27201)
0.411	-0.186	1.35	inactive	ARL6IP4 (GeneID 51329)
-0.977	-1.17	-1.41	inactive	MEX3D (GeneID 399664)
-0.955	-1.73	-1.3	inactive	TLL2 (GeneID 7093)
2.01	0.169	-2.57	inactive	HBZ (GeneID 3050)
2.92	2.58	2.66	active	LOC440765 (retired record) (GeneID 440765)
1.89	2.07	1.8	inactive	IQSEC3 (GeneID 440073)
0.434	1.48	0.301	inactive	PDGFD (GeneID 80310)
2.23	1.64	1.43	inactive	LOC440064 (retired record) (GeneID 440064)
-0.905	-0.441	-0.8	inactive	DOK7 (GeneID 285489)
0.306	0.585	0.45	inactive	NACA2 (GeneID 342538)
1.62	1.05	1.03	inactive	NAB1 (GeneID 4664)
-0.0906	0.0203	-0.239	inactive	LOC441629 (retired record) (GeneID 441629)
0.139	0.643	1	inactive	PTK7 (GeneID 5754)
-1.33	0.28	0.149	inactive	C1QTNF1 (GeneID 114897)
0.288	0.158	0.294	inactive	ARPC3 (GeneID 10094)
1.55	1.17	1.34	inactive	PPP1R3F (GeneID 89801)
-0.895	-0.61	-0.295	inactive	CNR2 (GeneID 1269)
-0.399	-1.47	-0.487	inactive	PHB2 (GeneID 11331)

Next part, starting with the last 4 of the part before.
robust z-score, replicate 1	robust z-score, replicate 2	robust z-score, replicate 3	Outcome	gene
0.288	0.158	0.294	inactive	ARPC3 (GeneID 10094)
1.55	1.17	1.34	inactive	PPP1R3F (GeneID 89801)
-0.895	-0.61	-0.295	inactive	CNR2 (GeneID 1269)
-0.399	-1.47	-0.487	inactive	PHB2 (GeneID 11331)
-1.08	-1.07	-1.06	inactive	SMAD3 (GeneID 4088)
1.19	-1.22	-0.042	inactive	TCP11L1 (GeneID 55346)
-0.094	-1.75	-1.85	inactive	MID1 (GeneID 4281)
1.9	1.68	2.1	active	CYB561D1 (GeneID 284613)
-1.02	-0.735	-1.08	inactive	LOC441834 (retired record) (GeneID 441834)
-1.4	-1.44	-1.84	inactive	ZNF558 (GeneID 148156)
-0.578	-0.0984	-0.718	inactive	LOC440347 (retired record) (GeneID 440347)
3.22	1.69	2.78	active	KL (GeneID 9365)
-1.07	-1.01	-0.222	inactive	LRFN5 (GeneID 145581)
-0.255	0.167	0.499	inactive	RASGRF1 (GeneID 5923)
-0.0757	0.493	0.686	inactive	CD81 (GeneID 975)
0.275	-0.437	-0.0367	inactive	LOC387784 (retired record) (GeneID 387784)
0.936	1.63	0.998	inactive	LOC389950 (retired record) (GeneID 389950)
0.968	0.436	0.267	inactive	IGF2BP3 (GeneID 10643)
-1.26	-1.18	-1.08	inactive	ELMO3 (GeneID 79767)
0.329	0.919	0.0133	inactive	FASLG (GeneID 356)
-0.539	-0.946	0.0753	inactive	ENTHD1 (GeneID 150350)
0.0611	0.369	-0.191	inactive	SRC (GeneID 6714)
0.769	0.895	1.29	inactive	LOC400623 (retired record) (GeneID 400623)
-1.47	-1.34	-1.02	inactive	TUBB (GeneID 203068)
-0.5	-0.429	-0.401	inactive	SUV39H1 (GeneID 6839)
